Measured values as given in publication PMC11055322.
These are yes or no findings as the source states them, for the method shown. In cells and extracts the contact can be indirect. Some entries that bind do so weakly or less than the wild type. Values belong to the molecule of their own block, whether it stands above or below them.

Amino acid sequences for entries named in this document (tags omitted). Residues count along the entry.
UniProt O95299, residues 36-355: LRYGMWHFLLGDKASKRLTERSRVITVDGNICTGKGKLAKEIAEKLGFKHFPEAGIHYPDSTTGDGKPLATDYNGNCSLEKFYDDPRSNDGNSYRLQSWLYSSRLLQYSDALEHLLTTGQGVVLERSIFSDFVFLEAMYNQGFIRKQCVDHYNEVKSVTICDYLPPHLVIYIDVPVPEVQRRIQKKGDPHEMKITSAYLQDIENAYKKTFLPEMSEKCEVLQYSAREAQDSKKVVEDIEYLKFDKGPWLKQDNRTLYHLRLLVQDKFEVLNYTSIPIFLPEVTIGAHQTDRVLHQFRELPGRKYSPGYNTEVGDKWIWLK

Columns and labels:
[1] = target: T1, caveolin 3 (CAV3) (human (endogenous in AC16)) (UniProt P56539); assay: co-IP; proteins extracted from mitochondria isolated from AC16 cells; IP with rabbit anti-CAV3 or rabbit anti-NDUFA10 antibody; protein A/G agarose; Western blot
T1 sequence: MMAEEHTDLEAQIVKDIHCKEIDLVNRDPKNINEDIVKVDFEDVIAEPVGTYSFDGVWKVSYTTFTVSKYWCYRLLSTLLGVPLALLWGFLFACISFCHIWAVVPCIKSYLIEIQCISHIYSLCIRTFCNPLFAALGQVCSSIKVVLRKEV

[2] = target: T1, caveolin 3 (CAV3) (human (endogenous in AC16)); assay: co-IP; whole-cell lysates of cardiomyocytes in RIPA buffer with protease inhibitors; IP with rabbit anti-CAV3, rabbit anti-NDUFA10 or control IgG; protein A/G agarose; Western blot
[3] = target: NDUFA10, a subunit of mitochondrial complex I (human (endogenous in AC16)) (UniProt O95299); assay: co-IP; proteins extracted from mitochondria isolated from AC16 cells; IP with rabbit anti-CAV3 or rabbit anti-NDUFA10 antibody; protein A/G agarose; Western blot

- binding [1]: binds
- binding [2]: binds
Molecule: NDUFA10, a subunit of mitochondrial complex I (from UniProt O95299 36-355)

B1: caveolin 3 (CAV3) (protein, UniProt P56539 1-151)
chain: T1 sequence
- binding [3]: binds
